The supplement of paper PMC6411743
± gives the standard deviation of the averaged measurements. Only a part is listed here, and it is no random draw.

The chains behind the UniProt entries cited, without tags or fusion partners. Where a name states a change or a piece, a line headed by the entry shows the natural chain unless it says otherwise.
UniProt Q71F56: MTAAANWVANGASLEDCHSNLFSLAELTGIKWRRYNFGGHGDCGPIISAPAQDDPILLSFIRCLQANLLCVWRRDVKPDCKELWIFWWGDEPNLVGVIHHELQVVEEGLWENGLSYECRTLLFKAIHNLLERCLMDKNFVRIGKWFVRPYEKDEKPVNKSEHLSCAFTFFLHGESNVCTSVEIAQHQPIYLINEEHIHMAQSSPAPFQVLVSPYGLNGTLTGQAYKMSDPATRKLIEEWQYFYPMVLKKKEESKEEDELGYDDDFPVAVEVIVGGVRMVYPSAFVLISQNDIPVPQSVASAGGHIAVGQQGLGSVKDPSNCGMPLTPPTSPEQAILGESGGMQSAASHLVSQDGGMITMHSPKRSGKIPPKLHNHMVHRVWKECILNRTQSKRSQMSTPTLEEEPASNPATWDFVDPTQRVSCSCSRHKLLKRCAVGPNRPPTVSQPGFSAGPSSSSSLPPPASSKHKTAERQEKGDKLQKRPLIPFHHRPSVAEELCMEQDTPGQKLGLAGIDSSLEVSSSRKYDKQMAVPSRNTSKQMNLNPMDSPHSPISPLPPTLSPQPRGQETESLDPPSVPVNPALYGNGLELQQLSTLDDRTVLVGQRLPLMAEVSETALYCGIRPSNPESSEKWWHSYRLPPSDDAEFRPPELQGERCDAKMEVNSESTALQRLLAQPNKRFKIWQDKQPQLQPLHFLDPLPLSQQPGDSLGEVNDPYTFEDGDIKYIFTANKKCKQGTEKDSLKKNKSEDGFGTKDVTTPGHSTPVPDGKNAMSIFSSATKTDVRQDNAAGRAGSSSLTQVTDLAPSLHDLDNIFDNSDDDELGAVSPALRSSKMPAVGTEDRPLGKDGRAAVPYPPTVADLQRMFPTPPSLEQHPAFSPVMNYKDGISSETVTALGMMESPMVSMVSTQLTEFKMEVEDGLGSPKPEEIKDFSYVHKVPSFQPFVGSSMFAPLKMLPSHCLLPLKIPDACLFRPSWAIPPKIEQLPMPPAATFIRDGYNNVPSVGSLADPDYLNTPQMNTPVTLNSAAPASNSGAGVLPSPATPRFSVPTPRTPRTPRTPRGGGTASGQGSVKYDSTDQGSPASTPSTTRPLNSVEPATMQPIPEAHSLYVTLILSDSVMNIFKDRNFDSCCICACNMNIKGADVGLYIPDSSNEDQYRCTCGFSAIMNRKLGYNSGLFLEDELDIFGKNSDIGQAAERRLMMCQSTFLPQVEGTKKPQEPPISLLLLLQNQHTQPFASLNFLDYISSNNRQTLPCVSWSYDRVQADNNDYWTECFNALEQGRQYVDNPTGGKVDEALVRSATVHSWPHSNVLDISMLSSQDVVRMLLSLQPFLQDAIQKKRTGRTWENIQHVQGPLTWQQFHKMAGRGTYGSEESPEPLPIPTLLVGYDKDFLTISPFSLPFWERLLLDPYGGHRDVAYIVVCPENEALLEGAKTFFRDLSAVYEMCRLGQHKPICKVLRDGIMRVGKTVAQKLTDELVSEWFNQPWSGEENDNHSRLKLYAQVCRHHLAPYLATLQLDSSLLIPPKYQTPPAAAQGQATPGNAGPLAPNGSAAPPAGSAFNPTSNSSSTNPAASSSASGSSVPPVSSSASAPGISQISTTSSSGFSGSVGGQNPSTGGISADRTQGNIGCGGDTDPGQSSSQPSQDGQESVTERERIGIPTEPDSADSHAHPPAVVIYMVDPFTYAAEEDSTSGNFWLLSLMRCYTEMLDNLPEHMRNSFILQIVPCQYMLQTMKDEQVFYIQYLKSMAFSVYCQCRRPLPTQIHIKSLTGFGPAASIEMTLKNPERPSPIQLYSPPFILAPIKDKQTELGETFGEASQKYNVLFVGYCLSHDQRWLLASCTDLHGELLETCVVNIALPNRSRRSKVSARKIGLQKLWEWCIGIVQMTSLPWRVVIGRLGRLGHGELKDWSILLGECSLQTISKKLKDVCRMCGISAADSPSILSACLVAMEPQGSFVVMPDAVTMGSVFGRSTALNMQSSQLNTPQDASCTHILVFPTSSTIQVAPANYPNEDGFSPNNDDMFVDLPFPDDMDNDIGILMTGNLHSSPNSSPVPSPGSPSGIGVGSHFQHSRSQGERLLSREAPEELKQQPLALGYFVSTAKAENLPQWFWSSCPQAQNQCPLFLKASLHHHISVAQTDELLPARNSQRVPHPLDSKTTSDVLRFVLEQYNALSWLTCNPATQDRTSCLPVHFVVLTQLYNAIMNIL
UniProt Q6P1A2: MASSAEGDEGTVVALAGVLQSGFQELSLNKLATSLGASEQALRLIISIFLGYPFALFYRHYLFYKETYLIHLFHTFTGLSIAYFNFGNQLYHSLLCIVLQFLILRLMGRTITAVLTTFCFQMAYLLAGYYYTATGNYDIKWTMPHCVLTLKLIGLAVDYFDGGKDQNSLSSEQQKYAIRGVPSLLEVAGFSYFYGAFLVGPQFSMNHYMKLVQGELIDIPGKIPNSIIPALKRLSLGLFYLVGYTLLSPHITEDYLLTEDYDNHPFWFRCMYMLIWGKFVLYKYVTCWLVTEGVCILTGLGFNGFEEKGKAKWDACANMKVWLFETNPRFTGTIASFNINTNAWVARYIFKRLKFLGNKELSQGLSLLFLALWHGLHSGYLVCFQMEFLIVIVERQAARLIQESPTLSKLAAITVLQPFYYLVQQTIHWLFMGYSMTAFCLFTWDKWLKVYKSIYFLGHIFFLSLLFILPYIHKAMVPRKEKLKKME
UniProt Q6ZNJ1: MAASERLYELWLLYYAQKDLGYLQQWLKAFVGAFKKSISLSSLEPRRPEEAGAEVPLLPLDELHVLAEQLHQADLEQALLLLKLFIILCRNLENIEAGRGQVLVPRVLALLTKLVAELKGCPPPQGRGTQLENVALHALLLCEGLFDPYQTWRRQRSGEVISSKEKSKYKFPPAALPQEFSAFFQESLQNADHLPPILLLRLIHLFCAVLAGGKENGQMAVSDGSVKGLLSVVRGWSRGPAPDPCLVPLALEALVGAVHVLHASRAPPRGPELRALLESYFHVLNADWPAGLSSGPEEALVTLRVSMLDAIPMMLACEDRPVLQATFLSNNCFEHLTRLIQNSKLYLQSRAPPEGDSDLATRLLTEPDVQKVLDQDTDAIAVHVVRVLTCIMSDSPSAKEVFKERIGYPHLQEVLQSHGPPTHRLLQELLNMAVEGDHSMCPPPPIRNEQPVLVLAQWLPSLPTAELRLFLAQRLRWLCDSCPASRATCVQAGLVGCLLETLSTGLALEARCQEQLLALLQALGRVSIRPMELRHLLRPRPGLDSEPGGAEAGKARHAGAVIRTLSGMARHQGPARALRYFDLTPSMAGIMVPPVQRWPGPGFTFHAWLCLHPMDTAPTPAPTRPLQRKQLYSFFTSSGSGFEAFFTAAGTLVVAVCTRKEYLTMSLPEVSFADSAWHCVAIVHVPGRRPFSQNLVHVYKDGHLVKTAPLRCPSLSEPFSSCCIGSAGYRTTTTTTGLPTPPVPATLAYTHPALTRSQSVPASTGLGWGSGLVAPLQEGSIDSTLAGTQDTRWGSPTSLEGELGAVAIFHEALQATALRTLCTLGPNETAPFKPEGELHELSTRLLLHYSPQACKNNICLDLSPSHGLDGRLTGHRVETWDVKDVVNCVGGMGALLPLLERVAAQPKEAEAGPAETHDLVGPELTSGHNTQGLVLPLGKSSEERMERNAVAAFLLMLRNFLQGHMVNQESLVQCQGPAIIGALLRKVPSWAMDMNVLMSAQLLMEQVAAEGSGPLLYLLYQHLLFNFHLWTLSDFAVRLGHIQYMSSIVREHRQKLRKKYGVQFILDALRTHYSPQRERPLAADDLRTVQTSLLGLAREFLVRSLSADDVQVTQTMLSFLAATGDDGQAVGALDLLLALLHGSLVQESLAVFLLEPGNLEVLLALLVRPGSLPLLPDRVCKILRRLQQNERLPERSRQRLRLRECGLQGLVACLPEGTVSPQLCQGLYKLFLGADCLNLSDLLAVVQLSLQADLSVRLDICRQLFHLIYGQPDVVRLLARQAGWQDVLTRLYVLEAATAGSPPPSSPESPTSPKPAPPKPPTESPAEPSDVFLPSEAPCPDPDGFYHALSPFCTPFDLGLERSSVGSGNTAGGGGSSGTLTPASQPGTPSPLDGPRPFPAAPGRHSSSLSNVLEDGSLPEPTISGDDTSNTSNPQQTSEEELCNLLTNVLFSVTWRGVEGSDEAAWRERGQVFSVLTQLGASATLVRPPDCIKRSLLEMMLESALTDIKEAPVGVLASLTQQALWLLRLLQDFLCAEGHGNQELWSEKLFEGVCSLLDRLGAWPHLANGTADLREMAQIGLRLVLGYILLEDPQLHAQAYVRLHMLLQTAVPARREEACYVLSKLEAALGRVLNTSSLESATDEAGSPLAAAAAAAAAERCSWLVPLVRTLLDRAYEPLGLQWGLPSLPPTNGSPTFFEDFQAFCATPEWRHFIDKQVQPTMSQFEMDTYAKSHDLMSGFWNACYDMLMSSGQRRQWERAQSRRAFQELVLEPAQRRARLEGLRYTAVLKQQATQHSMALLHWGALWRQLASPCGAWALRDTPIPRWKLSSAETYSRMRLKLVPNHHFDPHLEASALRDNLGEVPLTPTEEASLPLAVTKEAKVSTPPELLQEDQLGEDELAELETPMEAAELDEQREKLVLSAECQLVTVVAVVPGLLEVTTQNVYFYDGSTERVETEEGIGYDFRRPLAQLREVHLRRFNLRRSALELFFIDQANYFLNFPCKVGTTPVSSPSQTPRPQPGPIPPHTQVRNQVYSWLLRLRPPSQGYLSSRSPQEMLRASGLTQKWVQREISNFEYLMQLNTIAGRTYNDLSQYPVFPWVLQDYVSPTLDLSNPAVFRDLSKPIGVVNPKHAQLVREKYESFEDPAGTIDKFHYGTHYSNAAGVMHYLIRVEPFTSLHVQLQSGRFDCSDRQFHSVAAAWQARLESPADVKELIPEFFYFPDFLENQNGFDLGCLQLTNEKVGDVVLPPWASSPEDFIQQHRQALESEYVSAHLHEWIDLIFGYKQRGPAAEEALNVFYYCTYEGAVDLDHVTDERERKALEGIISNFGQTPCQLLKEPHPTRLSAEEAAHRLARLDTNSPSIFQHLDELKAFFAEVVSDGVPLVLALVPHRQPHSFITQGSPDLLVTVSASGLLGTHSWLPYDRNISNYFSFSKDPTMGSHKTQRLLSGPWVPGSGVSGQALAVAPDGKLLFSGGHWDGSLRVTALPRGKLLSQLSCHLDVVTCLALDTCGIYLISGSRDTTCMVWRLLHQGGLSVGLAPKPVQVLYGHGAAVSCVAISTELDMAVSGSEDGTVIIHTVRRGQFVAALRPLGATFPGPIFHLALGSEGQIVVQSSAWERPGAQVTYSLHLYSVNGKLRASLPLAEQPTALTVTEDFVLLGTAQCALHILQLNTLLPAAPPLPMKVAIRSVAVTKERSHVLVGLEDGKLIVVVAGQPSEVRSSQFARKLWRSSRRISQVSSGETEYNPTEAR
UniProt Q6NXT1: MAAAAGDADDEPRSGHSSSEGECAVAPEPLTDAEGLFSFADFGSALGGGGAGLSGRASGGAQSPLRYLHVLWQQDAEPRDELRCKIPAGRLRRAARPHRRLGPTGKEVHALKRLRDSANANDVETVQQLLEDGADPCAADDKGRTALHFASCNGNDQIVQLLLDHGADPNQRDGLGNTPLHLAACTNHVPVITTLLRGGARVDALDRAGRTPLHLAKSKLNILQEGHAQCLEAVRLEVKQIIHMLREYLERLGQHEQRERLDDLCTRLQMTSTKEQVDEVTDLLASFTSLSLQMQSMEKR
UniProt Q6PCE3: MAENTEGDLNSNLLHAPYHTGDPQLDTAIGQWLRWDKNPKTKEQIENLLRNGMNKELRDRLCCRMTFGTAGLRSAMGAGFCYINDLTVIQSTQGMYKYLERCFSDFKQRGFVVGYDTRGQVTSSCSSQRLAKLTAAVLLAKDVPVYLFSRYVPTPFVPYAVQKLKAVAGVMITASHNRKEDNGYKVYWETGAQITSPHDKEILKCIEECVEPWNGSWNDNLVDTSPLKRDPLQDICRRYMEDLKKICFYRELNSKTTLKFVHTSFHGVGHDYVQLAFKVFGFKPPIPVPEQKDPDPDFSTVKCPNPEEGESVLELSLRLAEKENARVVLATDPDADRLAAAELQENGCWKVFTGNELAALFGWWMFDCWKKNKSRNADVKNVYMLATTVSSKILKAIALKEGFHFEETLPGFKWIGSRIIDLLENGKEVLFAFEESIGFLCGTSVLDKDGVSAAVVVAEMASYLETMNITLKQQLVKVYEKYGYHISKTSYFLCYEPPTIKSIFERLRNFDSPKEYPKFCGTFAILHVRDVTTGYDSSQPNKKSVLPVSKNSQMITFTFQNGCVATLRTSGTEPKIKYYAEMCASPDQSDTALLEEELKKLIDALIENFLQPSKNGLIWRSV

Compound: Nc1ncnc2c1ncn2[C@@H]1O[C@H](COP(=O)(O)OP(=O)(O)NP(=O)(O)O)[C@@H](O)[C@H]1O [adenylyl imidodiphosphate]
Experiment: NP40-soluble protein abundance relative to vehicle (solubility fold change) (ratio); higher = more soluble protein in presence of AMP-PNP
Method in brief: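 Each value is a fold change relative to the detergent-processed vehicle, calculated per replicate from vsn-normalised intensities. Jurkat crude lysate received eight concentrations (0.1 to 10 mM) for 10 min at room temperature and 3 min at 37 °C, then was solubilised in 0.8% NP40 with benzonase (60 min, 4 °C). The ultracentrifuged supernatant was TMT-labelled and run by LC-MS/MS in three independent experiments.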

| Target | NP40-soluble protein abundance (concentration: 1mM) | NP40-soluble protein abundance (concentration: 2mM) | NP40-soluble protein abundance (concentration: 4mM) | NP40-soluble protein abundance (concentration: 6mM) | NP40-soluble protein abundance (concentration: 8mM) | NP40-soluble protein abundance (concentration: 10mM) |
| --- | --- | --- | --- | --- | --- | --- |
| PAXIP1 (UniProt Q6ZW49) | 1.02 ± 0.046 | 1.01 ± 0.054 | 1.02 ± 0.046 | 1.02 ± 0.016 | 1.01 ± 0.025 | 1 ± 0.053 |
| UniProt Q7Z4G4 and related entries | 0.972 ± 0.07 | 0.963 ± 0.0081 | 0.96 ± 0.04 | 0.962 ± 0.065 | 0.941 ± 0.043 | 0.951 ± 0.044 |
| TTC19 (UniProt Q6DKK2) | 0.987 ± 0.058 | 1.02 ± 0.036 | 0.98 ± 0.086 | 0.948 ± 0.056 | 0.957 ± 0.015 | 0.88 ± 0.065 |
| MED13L (UniProt Q71F56) | 1.02 ± 0.033 | 1.03 ± 0.015 | 1.01 ± 0.03 | 1.01 ± 0.072 | 1.01 ± 0.038 | 1.04 ± 0.081 |
| UniProt Q7Z434 and related entries | 1 ± 0.038 | 1.02 ± 0.049 | 1.01 ± 0.015 | 0.981 ± 0.013 | 0.968 ± 0.056 | 0.944 ± 0.032 |
| RPL7L1 (UniProt Q6DKI1) | 0.987 ± 0.028 | 0.989 ± 0.01 | 0.994 ± 0.014 | 0.963 ± 0.045 | 0.896 ± 0.024 | 0.9879 ± 0.0017 |
| PPP2R2D (UniProt Q66LE6) | 0.965 ± 0.018 | 0.934 ± 0.031 | 0.978 ± 0.041 | 0.9524 ± 0.0035 | 0.949 ± 0.024 | 0.921 ± 0.012 |
| ZFYVE16 (UniProt Q7Z3T8) | 1.02 ± 0.015 | 1.07 ± 0.058 | 1.02 ± 0.017 | 0.991 ± 0.024 | 0.972 ± 0.018 | 1.01 ± 0.052 |
| UniProt Q5VZL5 and related entries | 1.05 ± 0.023 | 1.1 ± 0.026 | 1.1 ± 0.017 | 1.17 ± 0.089 | 1.17 ± 0.1 | 1.24 ± 0.12 |
| UniProt Q6P1A2 and related entries | 1 ± 0.03 | 0.987 ± 0.048 | 0.9794 ± 0.00067 | 0.9868 ± 0.0093 | 0.997 ± 0.029 | 0.997 ± 0.019 |
| UniProt Q69YN4 | 1.04 ± 0.013 | 1.03 ± 0.036 | 1.068 ± 0.0095 | 1.01 ± 0.082 | 1.02 ± 0.068 | 1.01 ± 0.06 |
| UniProt Q6ZNJ1 and related entries | 0.993 ± 0.019 | 0.954 ± 0.066 | 0.999 ± 0.01 | 0.964 ± 0.017 | 0.974 ± 0.013 | 0.961 ± 0.032 |
| UniProt Q6P444 | 1.007 ± 0.0047 | 1.03 ± 0.021 | 1 ± 0.029 | 1.025 ± 0.0058 | 0.995 ± 0.016 | 0.996 ± 0.019 |
| ANKRD54 (UniProt Q6NXT1) | 0.994 ± 0.037 | 1.01 ± 0.066 | 0.991 ± 0.029 | 0.99 ± 0.028 | 0.942 ± 0.057 | 0.98 ± 0.042 |
| PGM2L1 (UniProt Q6PCE3) | 0.953 ± 0.037 | 0.931 ± 0.041 | 0.9821 ± 0.0089 | 0.989 ± 0.057 | 1.02 ± 0.012 | 0.978 ± 0.011 |

Copied from above (two entries):

| Target | NP40-soluble protein abundance (concentration: 1mM) | NP40-soluble protein abundance (concentration: 2mM) | NP40-soluble protein abundance (concentration: 4mM) | NP40-soluble protein abundance (concentration: 6mM) | NP40-soluble protein abundance (concentration: 8mM) | NP40-soluble protein abundance (concentration: 10mM) |
| --- | --- | --- | --- | --- | --- | --- |
| UniProt Q7Z434 and related entries | 1 ± 0.038 | 1.02 ± 0.049 | 1.01 ± 0.015 | 0.981 ± 0.013 | 0.968 ± 0.056 | 0.944 ± 0.032 |
| RPL7L1 (UniProt Q6DKI1) | 0.987 ± 0.028 | 0.989 ± 0.01 | 0.994 ± 0.014 | 0.963 ± 0.045 | 0.896 ± 0.024 | 0.9879 ± 0.0017 |
